Laboratory results from publication doi:10.1101/2023.05.26.542399.
Results are given in words; binding and its absence hold for the method and conditions named. Some entries that bind do so weakly or less than the wild type.

T1: A. thaliana DNA ligase IV (AtLIG4), co-expressed with AtXRCC4 (Arabidopsis thaliana) (UniProt Q9LL84)
T1 sequence: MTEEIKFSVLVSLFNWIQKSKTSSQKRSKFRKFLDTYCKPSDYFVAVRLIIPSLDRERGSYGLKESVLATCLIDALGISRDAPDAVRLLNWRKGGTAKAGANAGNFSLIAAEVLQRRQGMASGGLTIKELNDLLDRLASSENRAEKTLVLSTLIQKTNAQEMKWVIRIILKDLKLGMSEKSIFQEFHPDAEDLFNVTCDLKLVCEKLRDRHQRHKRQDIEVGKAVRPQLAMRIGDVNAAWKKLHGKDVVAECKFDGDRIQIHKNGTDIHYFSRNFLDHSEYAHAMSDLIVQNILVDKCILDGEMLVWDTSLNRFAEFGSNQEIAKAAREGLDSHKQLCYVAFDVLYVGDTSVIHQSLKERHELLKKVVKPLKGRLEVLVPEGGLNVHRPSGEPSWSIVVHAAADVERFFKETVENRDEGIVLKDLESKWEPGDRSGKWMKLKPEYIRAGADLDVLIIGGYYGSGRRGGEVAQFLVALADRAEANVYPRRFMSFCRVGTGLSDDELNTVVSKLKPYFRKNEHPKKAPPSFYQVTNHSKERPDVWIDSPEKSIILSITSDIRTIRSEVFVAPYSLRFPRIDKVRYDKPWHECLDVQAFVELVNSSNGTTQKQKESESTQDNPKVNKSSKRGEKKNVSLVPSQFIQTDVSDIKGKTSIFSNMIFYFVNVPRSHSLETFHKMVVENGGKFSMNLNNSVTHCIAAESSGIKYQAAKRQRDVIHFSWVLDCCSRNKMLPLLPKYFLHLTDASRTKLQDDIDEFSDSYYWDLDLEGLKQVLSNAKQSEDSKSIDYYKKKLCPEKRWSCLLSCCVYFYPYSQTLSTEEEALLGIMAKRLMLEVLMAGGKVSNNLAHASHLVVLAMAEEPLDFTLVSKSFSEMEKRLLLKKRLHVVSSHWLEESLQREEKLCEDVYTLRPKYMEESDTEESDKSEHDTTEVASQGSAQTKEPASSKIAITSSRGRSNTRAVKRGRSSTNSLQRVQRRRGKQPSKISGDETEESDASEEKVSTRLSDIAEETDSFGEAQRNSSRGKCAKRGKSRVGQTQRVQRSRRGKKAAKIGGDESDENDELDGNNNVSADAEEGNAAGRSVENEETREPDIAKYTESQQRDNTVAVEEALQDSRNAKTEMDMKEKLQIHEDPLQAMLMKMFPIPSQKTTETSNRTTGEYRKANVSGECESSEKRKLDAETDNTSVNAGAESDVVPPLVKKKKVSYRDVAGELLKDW

T2: A. thaliana Ku70 (co-expressed with Ku80) (Arabidopsis thaliana) (UniProt Q9FQ08)
T2 sequence: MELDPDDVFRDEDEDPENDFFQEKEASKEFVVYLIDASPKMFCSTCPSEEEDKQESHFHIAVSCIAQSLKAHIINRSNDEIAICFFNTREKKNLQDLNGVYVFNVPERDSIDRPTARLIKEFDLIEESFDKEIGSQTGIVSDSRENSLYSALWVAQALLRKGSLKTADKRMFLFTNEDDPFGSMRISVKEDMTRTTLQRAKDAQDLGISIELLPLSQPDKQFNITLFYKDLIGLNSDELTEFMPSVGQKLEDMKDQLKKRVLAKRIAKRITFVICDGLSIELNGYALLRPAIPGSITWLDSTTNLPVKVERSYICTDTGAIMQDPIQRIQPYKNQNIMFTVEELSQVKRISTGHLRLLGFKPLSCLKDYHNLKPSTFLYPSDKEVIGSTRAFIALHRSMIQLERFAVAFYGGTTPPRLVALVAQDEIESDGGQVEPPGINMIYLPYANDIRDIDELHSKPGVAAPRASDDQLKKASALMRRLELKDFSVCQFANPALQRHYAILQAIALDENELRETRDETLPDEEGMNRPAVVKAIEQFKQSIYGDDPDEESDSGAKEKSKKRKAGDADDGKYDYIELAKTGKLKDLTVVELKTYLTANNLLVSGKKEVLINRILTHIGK


Legend:
[1] = target: T1, A. thaliana DNA ligase IV (AtLIG4), co-expressed with AtXRCC4 (Arabidopsis thaliana); assay: co-purification
[2] = target: T2, A. thaliana Ku70 (co-expressed with Ku80) (Arabidopsis thaliana); assay: co-purification

binding [1]	binding [2]	Binder
binds	–	A. thaliana XRCC4 (AtXRCC4), co-expressed with AtLIG4 in Sf9 (protein, UniProt Q682V0 1-264) MIGVDSKSSSTTFIETMVESEKTKHTCLRLEISGADPIFVKGTWHNSRFDISVTDGSSSWICNATEEEVAERAAQWDQPVSEYLKLAEQYLGFQQPNSVYSFSDALEGSKRLSWTFEKEGTKLEWRWKCKPSDDSKKITVGILDFLMEANIRLSEEVVNKTRSFEKMRSEAERCLAQGEKLCDEKTEFESATYAKFLSVLNAKKAKLRALRDKEDSVRVVEEEESTDKAESFESGRSDDEKSEEEASKKATSSKARGGKRAARS
–	binds	A. thaliana Ku80 (co-expressed with Ku70) (protein, UniProt Q9FQ09 1-680) MARNREGLVLVLDVGPAMRSVLPDVEKACSMLLQKKLIYNKYDEVGIVVFGTEETGNELAREIGGYENVTVLRNIRVVDELAAEHVKQLPRGTVAGDFLDALIVGMDMLIKMYGNAHKGKKRMCLITNAACPTKDPFEGTKDDQVSTIAMKMAAEGIKMESIVMRSNLSGDAHERVIEENDHLLTLFSSNAIAKTVNVDSPLSLLGSLKTRRVAPVTLFRGDLEINPTMKIKVWVYKKVAEERLPTLKMYSDKAPPTDKFAKHEVKVDYDYKVTAESTEVIAPEERIKGFRYGPQVIPISPDQIETLKFKTDKGMKLLGFTEASNILRHYYMKDVNIVVPDPSKEKSVLAVSAIAREMKETNKVAIVRCVWRNGQGNVVVGVLTPNVSERDDTPDSFYFNVLPFAEDVREFPFPSFNKLPSSWKPDEQQQAVADNLVKMLDLAPSAEEEVLKPDLTPNPVLQRFYEYLELKSKSTDATLPPMDGTFKRLMEQDPELSSNNKSIMDTFRGSFEVKENPKLKKASKRLLRDKPSGSDDEDNRMITYDAKENKIDIVGDANPIQDFEAMISRRDKTDWTEKAITQMKNLIMKLVENCTDEGDKALECVLALRKGCVLEQEPKQFNEFLNHLFKLCQERNLSHLLEHFMSKKITLIPKSEAADSDIVDENAGDFIVKQESMLES
